Series [1] is described as follows: Biomass pretreatment using PBIL: solid recovery and composition.
A short description of series [2]: Compositional analysis of switchgrass after IL pretreatment. As to conditions: for Glucan / Lignin / Xylan: solid loading 10 wt %. More on the design: species or system Panicum virgatum. From the text:
Thus, compositional analysis of untreated, and pretreated SG with [EOA][OAc] at different temperatures and time was studied and the results were summarized in Table 4. Solid recovery refers to the mass percentage of biomass (dry weight) recovered from the original biomass load. After washing, 55-81% of the biomass was recovered. […] Untreated SG contained 29.6% glucan, 18.4% xylan and 20% acid insoluble lignin (entry 1). […] This trend was most obvious after pretreatment under higher temperature where lignin content was reduced by 77% (untreated: 20% vs. pretreated: 4.7%). […] IL are consistent with our previous report by using basic ILs such as [Ch][Lys] and [C2C1Im][Lys].^13
Compositional analysis of SG before and after pretreatment was performed using NREL acidolysis protocols (LAP) LAP-002 and LAP-005, which was described in our previous work.^13 In a typical process, 200 mg of biomass and 2 mL of 72 wt % H2SO4 were incubated at 30° C. while shaking at 300 rpm for 1 h. The solution was diluted to 4 wt % H2SO4 with 56 mL of DI water and autoclaved for 1 h at 121° C. The reaction was quenched into an ice bath before removing the biomass by filtration. Carbohydrate concentrations were determined from the filtrate using an Agilent HPLC 1200 Series equipped with a Bio-Rad Aminex HPX-87H column and a Refractive Index detector. An aqueous solution of H2SO4 (4 mM) was used as the mobile phase (0.6 mL min^−I, column temperature 50° C.). The injection volume was 20 pt with a run time of 20 min. Acid insoluble lignin was quantified gravimetrically from the solid after heating overnight at 105° C. (the weight of acid-insoluble lignin+ash) and then at 575° C. for at least 6 h (the weight of ash).

“And” between values parts separate entries of the source, which are not always exact repeats. Identical values can stand only once.

Take `C[N+](C)(C)CCO.C[N+](C)(C)CCO.O=P([O-])([O-])O` [[Ch]2[HPO4]]: the “Composition Glucan %” value in series [1] (T/t 140/1, IL 20%) was 47.6%; in series [1] (T/t 140/1, IL 100%), 51.8%. For the same compound, the “Composition Lignin %” value in series [1] (T/t 140/1, IL 20%) is 17.9%; in series [1] (T/t 140/1, IL 50%), 15.9%; in series [1] (T/t 140/1, IL 100%), 13.0%. Moreover, the “Composition Xylan %” value in series [1] (T/t 140/1, IL 20%) worked out at 21.9%; in series [1] (T/t 140/1, IL 50%) it was 21.7%; in series [1] (T/t 140/1, IL 100%), 18.7%.

Regarding `C[N+](C)(C)CCO.C[N+](C)(C)CCO.C[N+](C)(C)CCO.O=P([O-])([O-])[O-]` [[Ch]3[PO4]], the “Composition Glucan %” value turned out to be 51.8% in series [1] (T/t 140/1, IL 20%); 61.5% in series [1] (T/t 140/1, IL 50%); 44.0% in series [1] (T/t 140/1, IL 100%). The “Composition Lignin %” value in series [1] (T/t 140/1, IL 20%) was 11.7%; in series [1] (T/t 140/1, IL 50%), 4.6%; in series [1] (T/t 140/1, IL 100%) it was 7.8%. Further, the “Composition Xylan %” value in series [1] (T/t 140/1, IL 20%) is listed as 23.8%; in series [1] (T/t 140/1, IL 50%), 18.8%; in series [1] (T/t 140/1, IL 100%), 15.3%.

Consider `C[N+](C)(C)CCO.O=P([O-])(O)O` [[Ch][H2PO4], Cholinium dihydrogen-phosphate], for which, in series [1] (T/t 140/1, IL 20%), the “Composition Glucan %” value amounted to 39.4%, the “Composition Lignin %” value stood at 20.3% and the “Composition Xylan %” value turned out to be 24.4%. In series [1] (T/t 140/1, IL 50%), the “Composition Glucan %” value came to 37.8%, the “Composition Lignin %” value was found to be 18.5% and the “Composition Xylan %” value turned out to be 22.6%. In series [1] (T/t 140/1, IL 100%), the “Composition Glucan %” value is reported as 39.5%, the “Composition Lignin %” value was 19.5% and the “Composition Xylan %” value was 23.9%.

In the case of `CC(=O)O.NCCO` [[EOA][OAc], ethanolamine acetate], the Glucan in series [2] (120 °C/1 h) was 40.6 ± 0.4%; in series [2] (120 °C/3 h), 42.5 ± 0.7%; in series [2] (140 °C/1 h), 48.2 ± 0.6%; in series [2] (140 °C/3 h) it was 47.5 ± 0.1%; in series [2] (160 °C/0.5 h), 48.0% and 48.0 ± 1.6%; in series [2] (160 °C/1 h), 48.9% and 48.9 ± 1.6%. Further, the Glucan in series [2] (160 °C/3 h) was 49.8% and 49.8 ± 0.2%. Besides, the Lignin in series [2] (120 °C/1 h) is 11.6 ± 0.5%; in series [2] (120 °C/3 h) it was 9.1 ± 1.8%; in series [2] (140 °C/1 h), 8.4 ± 1.2%; in series [2] (140 °C/3 h), 6.5 ± 0.4%; in series [2] (160 °C/0.5 h) it was 6.1 ± 1.4%; in series [2] (160 °C/1 h) it was 5.7 ± 1.6%. Moreover, the Lignin in series [2] (160 °C/3 h) was 4.7% and 4.7 ± 0.8%. Also, the Xylan was 25.4 ± 0.2% in series [2] (120 °C/1 h); 26.0 ± 0.1% in series [2] (120 °C/3 h); 24.2 ± 1.1% in series [2] (140 °C/1 h); 24.0 ± 0.4% in series [2] (140 °C/3 h); 25.8 ± 0.6% in series [2] (160 °C/0.5 h); 26.6 ± 0.5% in series [2] (160 °C/1 h). Moreover, the Xylan in series [2] (160 °C/3 h) was 26.1 ± 0.9%. In addition, the “xylan contents for pretreated biomass” value in series [2] (over all temperatures and times) was 24-27%.

As for `CCCCN(CCCC)CCCC.O=P(O)(O)O` [[N444][H2PO4]], in series [1] (T/t 50/3), the “Composition Glucan %” value is listed as 39.6%, the “Composition Lignin %” value amounted to 18.6% and the “Composition Xylan %” value is 21.6%. Further, in series [1] (T/t 90/3), the “Composition Glucan %” value stood at 37.7%, the “Composition Lignin %” value is reported as 18.8% and the “Composition Xylan %” value came out at 21.1%.
